# From publication PMC12040169 (PLOS Biology, 2025)
# The other results are listed elsewhere or left out.
# System: T1, CTL2-GFP (C. trachomatis L2/434/Bu, GFP-expressing)
# T1 construct: L2/434/Bu, GFP-expressing
# Parameters: species or system HeLa; Intracellular C. trachomatis growth in HeLa cells, bulk GFP fluorescence relative to DMSO
# Settings: bulk GFP, single well; 28.5 h, 10 µM; inhibitor
row,SMILES,% of control remaining
1,COc1ccc(Cn2c(=O)n(C(=O)c3cccc(S(C)(=O)=O)c3)c3ccccc32)cc1 [CBK106547],133.772%
2,CCC(C)(C)c1ccc(S(=O)(=O)N2CCN(CCCOC3CCCCO3)CC2)cc1 (stereo not drawn) [CBK063135],100.617%
3,CN(C)C(=O)CCNC(=O)c1ccc2c(c1)nc(N1CC[C@H](O)C1)n2C [CBK306671],136.408%
4,CCc1nn(CC(=O)NC2CCC2)c(=O)c2cc3sc(C)cc3n12 [CBK284142],124.476%
5,CC(=O)c1ccc(C(=O)Nc2ccc3nc(C)sc3c2)cc1 [CBK287310],166.698%
6,O=C(Cc1ccc(Cl)cc1)NC(=S)Nc1ccccc1[N+](=O)[O-] [CBK263909],115.736%
7,Cc1nn(C)c(C)c1CN(C(=O)c1ccc(C)n(C)c1=O)C1CC1 [CBK281450],81.6834%
8,COc1cccc(C2Nc3ccc4ccccc4c3C3=C2C(=O)CC(C)(C)C3)c1OCC(=O)O (stereo not drawn) [CBK263045],98.2648%
9,COc1ccc([C@@]23CC[C@@H](NC(=O)Nc4ccc(OC(F)(F)F)cc4)C[C@@H]2N(C)CC3)cc1OC [CBK036455T],97.1315%
10,C=CCn1c(Cc2csc(NC(=O)c3ccc([N+](=O)[O-])cc3Cl)n2)n[nH]c1=S [CBK295291],151.758%
11,CCn1cncc1CN1CCC(O)(c2ccccc2F)CC1 [CBK282817],105.346%
12,CCn1c(C)cc(C(=O)N2CCN(c3nccc(OC)n3)CC2)c1C [CBK305791],104.394%
13,C(=N\N1CCN(Cc2cccc3ccccc23)CC1)/c1ccncc1 [CBK263003],123.901%
14,CCN(CC)C(=O)C1CCCN1C(=O)c1ccnc(N(C)C)c1 (stereo not drawn) [CBK305086],147.406%
15,O=C(Cn1c(NCCCO)nc2ccccc21)c1ccc(Cl)c(Cl)c1 [CBK262905B],109.803%
16,Cc1ccc2c(c1)C(=O)CC1(CCN(C(=O)C3CCCC3)CC1)O2 [CBK283718],144.631%
17,CC(C)CNC(=S)N[C@H]1CO[C@H]2[C@@H]1OC[C@@H]2Nc1nccc(C(C)(C)C)n1 [CBK289523],117.027%
18,CC(C)c1ncc(CN2CCC(CC(=O)N3CCN(c4ccccc4)CC3)CC2)cn1 [CBK286048],107.601%
19,CSCCC(=O)N1CCC(Cn2cncn2)(C2CCCCC2)CC1 [CBK136799],103.748%
20,COCCOCCOc1ccccc1OCCOCCOC [CBK009636],150.709%
21,CCN1CCC(Oc2nccnc2OCc2cc(C)on2)CC1 [CBK082962T],108.276%

# Five entries from above, reformatted:
row	SMILES	% of control remaining
8	COc1cccc(C2Nc3ccc4ccccc4c3C3=C2C(=O)CC(C)(C)C3)c1OCC(=O)O (stereo not drawn) [CBK263045]	98.2648%
11	CCn1cncc1CN1CCC(O)(c2ccccc2F)CC1 [CBK282817]	105.346%
14	CCN(CC)C(=O)C1CCCN1C(=O)c1ccnc(N(C)C)c1 (stereo not drawn) [CBK305086]	147.406%
18	CC(C)c1ncc(CN2CCC(CC(=O)N3CCN(c4ccccc4)CC3)CC2)cn1 [CBK286048]	107.601%
19	CSCCC(=O)N1CCC(Cn2cncn2)(C2CCCCC2)CC1 [CBK136799]	103.748%
